Results are given in words; binding and its absence hold for the method and conditions named. In cells and extracts the contact can be indirect. Some results given as binding are weak or reduced against the parent protein; the word gives no strength.
Experiments:
[1] = biological target: full length EGFP-XRCC1 (human) (UniProt P18887); assay: co-IP; EGFP-XRCC1 recovered on GFP-Trap beads from extract of stably transfected U2OS^GFP-XRCC1 cells; 25 mM HEPES pH 7.8, 150 mM NaCl, 10% glycerol, 0.5% Triton X-100; blot with anti-PARP1; with or without PARP inhibitor (500 nM Ku-58948) in the medium for 1 h and in the lysis buffer
[2] = biological target: EGFP-XRCC1^161–406 (human) (UniProt P18887); assay: co-IP; U2OS cells transiently co-transfected with EGFP-XRCC1 161-406 constructs and mCherry-PARP1 constructs; GFP-Trap beads from whole cell extract; 25 mM HEPES pH 7.8, 150 mM NaCl, 10% glycerol, 0.5% Triton X-100; blot with anti-GFP and anti-PARP1

The chains behind the UniProt entries cited, without tags or fusion partners. Where a name states a change or a piece, a line headed by the entry shows the natural chain unless it says otherwise. Residues count along the entry.
UniProt P18887: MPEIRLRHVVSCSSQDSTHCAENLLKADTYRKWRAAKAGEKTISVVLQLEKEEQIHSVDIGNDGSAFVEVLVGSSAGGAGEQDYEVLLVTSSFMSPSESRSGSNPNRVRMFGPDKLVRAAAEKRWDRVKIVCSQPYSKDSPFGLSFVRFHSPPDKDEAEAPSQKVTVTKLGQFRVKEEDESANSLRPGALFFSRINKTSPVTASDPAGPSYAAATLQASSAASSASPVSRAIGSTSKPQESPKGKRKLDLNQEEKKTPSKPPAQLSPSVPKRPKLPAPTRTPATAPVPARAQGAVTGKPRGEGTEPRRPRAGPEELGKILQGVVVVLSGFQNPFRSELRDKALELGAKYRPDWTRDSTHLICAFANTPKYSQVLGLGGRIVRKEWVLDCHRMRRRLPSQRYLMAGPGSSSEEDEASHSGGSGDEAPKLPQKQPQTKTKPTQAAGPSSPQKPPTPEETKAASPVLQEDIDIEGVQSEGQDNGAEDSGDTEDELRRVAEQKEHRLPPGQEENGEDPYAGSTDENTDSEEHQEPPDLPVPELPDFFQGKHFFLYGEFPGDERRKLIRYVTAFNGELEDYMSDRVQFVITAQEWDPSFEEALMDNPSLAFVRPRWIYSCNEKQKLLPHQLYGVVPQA
EGFP-XRCC1^161–406: residues 161-406 of P18887
UniProt P09874: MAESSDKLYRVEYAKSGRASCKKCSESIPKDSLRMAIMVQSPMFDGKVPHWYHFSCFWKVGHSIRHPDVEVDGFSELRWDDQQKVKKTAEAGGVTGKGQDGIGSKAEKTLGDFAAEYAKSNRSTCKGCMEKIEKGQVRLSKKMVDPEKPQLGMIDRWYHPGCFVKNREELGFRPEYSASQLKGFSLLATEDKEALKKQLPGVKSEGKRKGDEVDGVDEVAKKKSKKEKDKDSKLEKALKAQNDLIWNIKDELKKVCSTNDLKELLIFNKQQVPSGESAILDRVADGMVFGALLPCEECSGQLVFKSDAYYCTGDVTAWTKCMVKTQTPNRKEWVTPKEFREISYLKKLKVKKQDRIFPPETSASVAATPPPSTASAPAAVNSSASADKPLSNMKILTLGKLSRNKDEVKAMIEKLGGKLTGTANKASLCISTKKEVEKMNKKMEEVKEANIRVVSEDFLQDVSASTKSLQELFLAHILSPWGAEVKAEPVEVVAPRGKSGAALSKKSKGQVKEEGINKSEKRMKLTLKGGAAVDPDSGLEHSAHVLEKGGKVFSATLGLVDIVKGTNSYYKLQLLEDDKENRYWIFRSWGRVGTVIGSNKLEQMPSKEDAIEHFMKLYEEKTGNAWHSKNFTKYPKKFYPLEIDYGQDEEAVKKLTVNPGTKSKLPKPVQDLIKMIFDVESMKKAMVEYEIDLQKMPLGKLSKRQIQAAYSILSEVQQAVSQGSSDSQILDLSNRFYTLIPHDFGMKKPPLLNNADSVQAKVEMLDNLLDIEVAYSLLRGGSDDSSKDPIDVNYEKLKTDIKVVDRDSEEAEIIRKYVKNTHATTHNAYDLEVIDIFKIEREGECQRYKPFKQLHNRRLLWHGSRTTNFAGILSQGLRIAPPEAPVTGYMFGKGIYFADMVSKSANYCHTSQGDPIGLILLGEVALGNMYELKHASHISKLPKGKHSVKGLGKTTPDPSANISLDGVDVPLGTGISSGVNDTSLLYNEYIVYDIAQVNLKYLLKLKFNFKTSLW

Row | binding [1] | binding [2] | Substance
1 | binds |  | endogenous PARP1 (from UniProt P09874 1-1014) (enzyme)
2 |  | binds | mCherry-PARP1^E988K (from UniProt P09874 1-1014) (enzyme)
3 |  | binds | mCherry-PARP1 (from UniProt P09874 1-1014) (enzyme)

Source: paper PMC4538820, “The XRCC1 phosphate-binding pocket binds poly (ADP-ribose) and is required for XRCC1 function” (Nucleic Acids Research, 2015)
